A short description of one data set: in vitro. The following applies: human, microsomes, HLM CLint.
The nature of another data set: physchem. The following applies: aqueous buffer, kinetic from dmso stock.

Regarding `COCc1nn(Cc2ccc(Cn3ccccc3=O)cc2)cc1C(=O)NCc1c(F)ccc(OC)c1C(F)F` [Compound 13m, COCc1nn(cc1C(=O)NCc1c(ccc(c1C(F)F)OC)F)Cc1ccc(cc1)CN1C=CC=CC1=O], the “kinetic sol aq assay buffer (pH 7.4)” value was more than 0.13 mg/mL. In addition, the microsomal CLint in “in vitro” amounted to 100 µL/min/mg. The compound also showed a kinetic solubility at 30 s in the data set “physchem” of more than 130 µg/mL.

By microsomal CLint is commonly meant a measure of how fast metabolising enzymes remove a compound, apart from limits set by blood flow. A higher microsomal CLint goes with faster metabolism. In general, solubility (kinetic) refers to the concentration staying in solution when a stock, usually in DMSO, is diluted into the medium.

For the origin of these results see PMC9620001 (Journal of Medicinal Chemistry, 2022).
